Experimental findings from paper doi:10.1101/778639 are described below.

Protein sequences, listed by entry. Tags and fused reporters are not part of them.
UniProt Q9Y812: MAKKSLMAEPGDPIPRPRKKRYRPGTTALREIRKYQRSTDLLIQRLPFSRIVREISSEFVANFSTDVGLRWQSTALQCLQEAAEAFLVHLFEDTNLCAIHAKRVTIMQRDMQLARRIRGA

These are yes or no findings as the source states them, for the method shown. In cells and extracts the contact can be indirect. These calls come from enrichment with a bait or labelling near it, and not all partners need be listed.

In this test the target is GFP-tagged CENP-A^Cnp1 (S. pombe) (UniProt Q9Y812). In words: affinity purification with mass spectrometry.

B1: Sim3 (NASP) (protein, UniProt Q9USQ4 1-396)
chain: MSSDTKTLENSKGNSATDADTKNPSSSDSRAIEQLVTQGNMAYAQKNYEEAVDKYGQALMQSESIHGSESLENRNVLWLYGKSLFQIAIENSQVLGNALGAKESVSQATESFEEPEAIGSFTFSGQKIENKYTVNEENSSIAHPEKESEEKETNEASPASEEDEDDFNVAWEVLDLTRVMQSKAVDAYPDSKDEKIRLADIYDLLGELSLEIENFSQASQDLKTALEWKEKVYNVSNNTLLSEAHYKLALALEFTNPEDPSNKSRACEHVEKAAEILKNVLNERENEVTDKKGKGKQKAEESTLTSDLENLREMLSELEQKTLDLKHGAPSLEEAVMSKMHESSLLSKDSSSLAQAVAEAVKNANDLGGLVKRKRTKQEVTSSSQKEGPKDKKKKD
With B1, the binding result is reported as “binds”.

B2: Scm3 (HJURP) (protein, UniProt Q9HDY7 1-336)
chain: MCNRQPKAVDLPPNYSCPHLLSFQSVEFNTNPTACDDVFCKRIESEKKYNDFLESLFKKYGRDTSDIADEVDLATGEIIVNNGHLEALKTKDDIWDPTFNNLEISASNGYEKKLDSSIGNPGEKAVSPVHIEDFQSPQIYKFKNLSLRDEMVSDCVFADEVPLASLFVENVCNETIPSQSCVRLKINDKTRKVDASALEKKSCLLPNSSGTLTDQRGLDTIKHKSIEQNEILHVISDTLSSPRRRNPLLSSPKTPLRRSFSKSKVRNSNSTKRRNFISLISMISPRPNLSTHHFNLGFQPLSQQTSFSGSSTQNPHSSSTCKKAFCFQCISESKKC
As to B2, the binding entry is recorded as “binds”.
